{
  "source": "patent US11155580B2",
  "about": "“Modified proteins and methods of use thereof” (YALE UNIVERSITY, priority 2013, dated 2021)",
  "test_system": "HeLa cells transfected with the indicated GFP fusion protein",
  "assay": "Colocalization with Rab-GFP fusions and galT-GFP, confocal microscopy",
  "type": "cell-based",
  "note": "Where a SMILES comes first, the peptide text is derived from it. The star is where a group is joined. X1 = CCN(CC)c1ccc2c(-c3ccc(S(=O)(=O)*)cc3S(=O)(=O)[O-])c3ccc(=[N+](CC)CC)cc-3oc2c1",
  "data": [
    {"compound": "K^RhodWYSCNVCGKAFVLSRHLNRHLRVHRRAT-NH2 (KWYSCNVCGKAFVLSRHLNRHLRVHRRAT; N-terminal rhodamine-labeled Lys; C-terminal amide; (1)..(1) rhodamine) [ZF5.3R]", "values": [
      {"measurement": "rhodamine signal overlapping with GFP-Rab5", "setting": "1 μM, 30 min, HeLa cells", "result": 68, "unit": "%"}
    ]},
    {"compound": "CC[C@H](C)[C@H](NC(=O)[C@H](CC(C)C)NC(=O)[C@H](CC(=O)O)NC(=O)[C@H](CCCNC(=N)N)NC(=O)[C@@H](NC(=O)[C@@H]1CCCN1C(=O)[C@H](C)NC(=O)[C@H](CC(=O)O)NC(=O)[C@H](CC(=O)O)NC(=O)CNC(=O)[C@@H]1CCCN1C(=O)[C@H](Cc1ccc(O)cc1)NC(=O)[C@@H](NC(=O)[C@@H]1CCCN1C(=O)[C@H](CCC(N)=O)NC(=O)[C@H](CO)NC(=O)[C@@H]1CCCN1C(=O)CNC(=O)[C@@H](N)CCCCNS(=O)(=O)c1ccc(-c2c3ccc(=[N+](CC)CC)cc-3oc3cc(N(CC)CC)ccc23)c(S(=O)(=O)[O-])c1)[C@@H](C)O)C(C)C)C(=O)N[C@@H](CCCNC(=N)N)C(=O)N[C@@H](Cc1ccccc1)C(=O)N[C@@H](Cc1ccc(O)cc1)C(=O)N[C@@H](CCCNC(=N)N)C(=O)N[C@@H](CC(=O)O)C(=O)N[C@@H](CC(C)C)C(=O)N[C@@H](CCCNC(=N)N)C(=O)N[C@@H](CCCNC(=N)N)C(=O)N[C@@H](Cc1ccc(O)cc1)C(=O)N[C@@H](CC(C)C)C(=O)N[C@@H](CC(N)=O)C(=O)N[C@H](C(=O)N[C@H](C(=O)N[C@H](C(=O)N[C@@H](CCCNC(=N)N)C(=O)N[C@@H](Cc1c[nH]cn1)C(=O)N[C@@H](CCCNC(=N)N)C(=O)N[C@@H](Cc1ccc(O)cc1)C(N)=O)[C@@H](C)O)C(C)C)C(C)C", "note": "[5.3R] (H-K(X1)GPSQPTYPGDDAPVRDLIRFYRDLRRYLNVVTRHRY-NH2)", "values": [
      {"measurement": "rhodamine signal located in the Rab7-GFP compartment", "setting": "1 μM, 30 min, HeLa cells", "result": 87, "unit": "%"},
      {"measurement": "rhodamine signal overlapping with GFP-Rab5", "setting": "1 μM, 30 min, HeLa cells", "result": 66, "unit": "%"},
      {"measurement": "miniature protein localized to enlarged GFP+ endosomes", "setting": "HeLa cells transfected with Rab5Q79L-GFP", "result": 99, "unit": "%"}
    ]}
  ]
}
